Data as given in PubChem BioAssay AID504808 (Drosophila RNAi Screening Center, 2011).
Assay: 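Fly genes required to hold E2F transcription in check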 (primary screen). Cell system: Drosophila S2 cells. Reagent: long dsRNA against Drosophila genes. Read-out: 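Firefly luciferase driven by E2F sites, normalised to Renilla luciferase on the same minimal promoter, measured by plate reader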. Reading the numbers: E2F firefly: higher = more E2F reporter activity; Renilla normaliser: higher = more normaliser reporter signal. Hit rule: 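a knock-down counted as active when the firefly/Renilla E2F signal rose above 50%, a threshold chosen arbitrarily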.
The screen tested about 21,000 reagents; this is a random part of those with a known target gene and a result. Over the whole deposit, 18 (0.084%) are marked active. 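Raw counts without plate normalisation, one of two replicates; the ratio scores behind the calls were not deposited.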 Names joined by + are all predicted targets of the reagent. Reagent sequences are not shown. Not stated in the record: the amount of reagent, the time to read-out.

no.	predicted target	DRSC id	E2F firefly, rep 1	Renilla normaliser, rep 1	call
1	CG10466	DRSC02060	96849	3915	inactive
2	CG34450	DRSC17822	8131	708	inactive
3	CG34126	DRSC02726	1.56e5	5362	inactive
4	ND-13B (NADH dehydrogenase (ubiquinone) 13 kDa B subunit)	DRSC10643	1.27e5	7482	inactive
5	vex (vexed)	DRSC19481	1.22e5	6302	inactive
6	vex (vexed)	DRSC19651	1.34e5	6446	inactive
7	PGRP-LC (Peptidoglycan recognition protein LC)	DRSC08980	1.24e5	4474	inactive
8	PGRP-LC (Peptidoglycan recognition protein LC)	DRSC10416	1.03e5	5004	inactive
9	PGRP-LC (Peptidoglycan recognition protein LC)	DRSC10417	1.12e5	5401	inactive
10	CG14763	DRSC06497	1.47e5	5236	inactive
11	CG15083	DRSC06514	1.48e5	4557	inactive
12	Pex16 (Peroxin 16)	DRSC11750	75331	3438	inactive
13	stj (straightjacket)	DRSC06124	174	30	inactive
14	CG14929 + CG4970 + CG14930	DRSC02412	1.46e5	4950	inactive
15	ND-B14 (NADH dehydrogenase (ubiquinone) B14 subunit)	DRSC07029	1.41e5	4768	inactive
16	CG8475	DRSC03091	86325	3539	inactive
17	Arpc4 (Actin-related protein 2/3 complex, subunit 4)	DRSC02917	1.64e5	5683	inactive
18	CG17598	DRSC20636	1.63e5	5500	inactive
19	alphaTry (alphaTrypsin)	DRSC07577	1.10e5	4396	inactive
20	ens (ensconsin)	DRSC08454	70526	3105	inactive
21	Lcp65Ae	DRSC11212	92785	3837	inactive

5 entries from above in another layout.
{"predicted target":"stj (straightjacket)","DRSC id":"DRSC06124","E2F firefly, rep 1":174,"Renilla normaliser, rep 1":30,"call":"inactive"}
{"predicted target":"CG14929 + CG4970 + CG14930","DRSC id":"DRSC02412","E2F firefly, rep 1":1.46e5,"Renilla normaliser, rep 1":4950,"call":"inactive"}
{"predicted target":"ND-B14 (NADH dehydrogenase (ubiquinone) B14 subunit)","DRSC id":"DRSC07029","E2F firefly, rep 1":1.41e5,"Renilla normaliser, rep 1":4768,"call":"inactive"}
{"predicted target":"CG8475","DRSC id":"DRSC03091","E2F firefly, rep 1":86325,"Renilla normaliser, rep 1":3539,"call":"inactive"}
{"predicted target":"Arpc4 (Actin-related protein 2/3 complex, subunit 4)","DRSC id":"DRSC02917","E2F firefly, rep 1":1.64e5,"Renilla normaliser, rep 1":5683,"call":"inactive"}

Further results:
no.	predicted target	DRSC id	E2F firefly, rep 1	Renilla normaliser, rep 1	call
22	CG13578	DRSC04214	1.00e5	4683	inactive
23	CtsB (Cathepsin B)	DRSC19361	8102	788	inactive
24	Kpc1 (Kip1 ubiquitination-promoting complex subunit 1)	DRSC16107	79206	3405	inactive
25	Sap47 (Synapse-associated protein 47kD)	DRSC16850	75511	5302	inactive
26	CG14743	DRSC06479	1.54e5	5167	inactive
27	Trs33 (TRAPP subunit 33)	DRSC15990	1.03e5	5868	inactive
28	Claspin	DRSC08308	54803	3671	inactive
29	LManVI (Lysosomal alpha-mannosidase VI)	DRSC03224	1.53e5	5323	inactive
30	RpS16 (Ribosomal protein S16)	DRSC04442	93426	4960	inactive
31	CG31199	DRSC15284	59480	2977	inactive
32	CG33251 (retired record) + CG9915	DRSC20217	1.37e5	5643	inactive
33	CheA7a (Chemosensory protein A 7a)	DRSC17965	1.07e5	5144	inactive
34	CG42784	DRSC02534	77655	4006	inactive
35	CG42784	DRSC02535	80421	104	inactive
36	CG12725	DRSC19501	98494	5166	inactive
37	Nt5b (5' nucleotidase B)	DRSC19976	1.70e5	6382	inactive
38	Nt5b (5' nucleotidase B)	DRSC19977	2.70e5	7928	inactive
39	Nt5b (5' nucleotidase B)	DRSC19978	2.52e5	6646	inactive
40	CG32599	DRSC19433	8038	784	inactive
41	lin-28	DRSC10261	1.08e5	4154	inactive
42	CG11791	DRSC14391	72987	3124	inactive
43	c(3)G (crossover suppressor on 3 of Gowen)	DRSC15245	77702	3394	inactive
44	und (uninitiated)	DRSC03629	78894	3436	inactive
45	Cht6 (Chitinase 6)	DRSC18001	1.21e5	6092	inactive
46	Cht6 (Chitinase 6)	DRSC18002	79998	4109	inactive
47	Cht6 (Chitinase 6)	DRSC18253	1.32e5	6852	inactive
48	CG7448 (retired record)	DRSC11828	76906	3772	inactive
49	GstD3 (Glutathione S transferase D3)	DRSC15571	1.45e5	7076	inactive
50	CG1792	DRSC15290	50668	3332	inactive
51	CG18268 + CG3014	DRSC15319	1.33e5	6074	inactive
52	TP53INP (Tumor protein p53 inducible nuclear protein)	DRSC08178	83887	3651	inactive
53	CG33490	DRSC10587	70474	3467	inactive
54	CG6836	DRSC10722	79690	3459	inactive
55	Sc2	DRSC08162	67602	3087	inactive
56	l(3)72Dp (lethal (3) 72Dp)	DRSC10477	1.55e5	8491	inactive
57	Atg8a (Autophagy-related 8a)	DRSC18024	1.29e5	6341	inactive
